Among the data in article PMC6158461 are binding values, retold here.

By UniProt entry, the sequences of proteins in these tests, tags left out. Where a name states a change or a piece, a line headed by the entry shows the natural chain unless it says otherwise.
UniProt O54439: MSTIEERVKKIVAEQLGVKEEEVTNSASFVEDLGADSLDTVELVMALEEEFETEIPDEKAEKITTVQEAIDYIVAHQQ
UniProt Q9HYR1: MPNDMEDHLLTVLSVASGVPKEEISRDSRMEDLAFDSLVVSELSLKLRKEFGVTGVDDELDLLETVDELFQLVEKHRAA

First the molecules themselves.
B1: FabZ, 3-hydroxyacyl-ACP dehydratase (enzyme, UniProt Q9HXY7 1-146)
chain: MMDINEIREYLPHRYPFLLVDRVVELDIEGKRIRAYKNVSINEPFFNGHFPEHPIMPGVLIIEAMAQAAGILGFKMLDVKPADGTLYYFVGSDKLRFRQPVLPGDQLQLHAKFISVKRSIWKFDCHATVDDKPVCSAEIICAERKL
B2: LpxD, UDP-3-O-acylglucosamine N-acyltransferase (enzyme, UniProt Q9HXY6 1-353)
chain: MMSTLSYTLGQLAAHVGAEVRGDADLPIQGLATLQEAGPAQLSFLANPQYRKYLPESRAGAVLLTAADADGFAGTALVVANPYLAYASLSHLFDRKPKAAAGIHPTAIVAADAEVDPSASVGAYAVIESGARIGAGVSIGAHCVIGARSVIGEGGWLAPRVTLYHDVTIGARVSIQSGAVIGGEGFGFANEKGVWQKIAQIGGVTIGDDVEIGANTTIDRGALSDTLIGNGVKLDNQIMIAHNVQIGDHTAMAACVGISGSAKIGRHCMLAGGVGLVGHIEICDNVFVTGMTMVTRSITEPGSYSSGTAMQPAAEWKKSAARIRQLDDMARRLQQLEKRLAAVTSSGDASSDA
B3: CobL, precorrin-6Y C(5,15)-methyltransferase (enzyme, UniProt Q9HZU0 1-415)
chain: MSSADSTPPWLTLVGIGEDGYPGLGKQARRALLQASRIVGAARQLELLPPCIGAARETWPTPFSLEPLLARRGQPTCVLASGDPMLFGVGASLARQLPATELRVLPAPSSLSLAAARLGWALQEVACLSLVARPLAALQAQVHDGRRLLVLSNDGDSPAAIARLLNARGFGASRLSVLEHLGGPLERRLDGLAGDWSLPRAADLNLVAVECRAGAGAVRLPLTPGLADEAYRHDGQLTKRDVRAVTLARLAPCPGELLWDVGAGCGSIGIEWMRAHPSCRAIAIEANDERQEHIRHNRDALGVPTLHLVAGSAPEALLELPEPDAIFIGGGVTAEGVLETCWERLRPGGRLLANAVTLQSERVLLDWQQRLGGDLTRLGVAHARPLGGFDTWRQALPITLLELRKPAARKPPRDA
B4: SpoT (enzyme, UniProt Q9HTM0 1-701)
chain: MPGIDAFADRLSSYLGPDQVNLVRRAYYYAEQAHDGQRRRSGEPYVTHPLAVSNILADMHMDHQSLMAAMLHDVIEDTGIAKEALTAQFGETVSELVDGVSKLTQMNFETKAEAQAENFQKMAMAMARDIRVILVKLADRLHNMRTLEVLSGEKRRRIAKETLEIYAPIANRLGMHTMRVEFEDLGFKAMHPMRAERIRQAVKKARGNRREIVGKIQESLVNCLAREGMEGQVIGREKHLYSIYQKMRGKRKAFNEIMDVYAFRIIVDKVDTCYRVLGAVHSLYKPFPGRFKDYIAIPKANGYQSLHTTLFGMHGVPIEIQIRTREMEEMANHGIAAHWLYKSNDETPKGTHARARQWVKGVLELQQRAGNSLEFIENVKIDLFPDEVYVFTPKGRIMELPKGSTAVDFAYAVHTDVGNSCIACRINRRLAPLSEPLQSGQTVEIVTAPGARPNPAWLSFVVTGKARTHIRHALKLQRRSESINLGERLLNKTLTGFDSHLEKIPQERIQAVLAEYRMEVFEDLLEEIGLGNRMAYVVARRLLSSEGEEAPSAEGPLAIRGTEGLVLSYAKCCTPIPGDPIVGHLSAGKGMVVHLESCKNISEVRHNPEKCIQLSWAKDVTGEFNVELRVELEHQRGLIALLATSVNAADGNIEKISMDERDGRISVVQLVVSVHDRVHLARVIKKLRALKGVIRITRLRS
B5: SpeE2, spermidine synthase 2 (enzyme, UniProt Q9HV34 1-349)
chain: MPAEVAAGLPPLPPNHFYFYPPDPLLEGDGAITAIEDSDPFDQYVYRLRRVLYQGRTRWQNVLIADTYNYDRVLMLDGAIQSAESDESLYHELLVQPAMLAHDEPRDVLIIGGGEGATLREVLSHASVRRAVMVDLDRELVELCREHLFQWHQGAFDDPRCELLAEDGRAYLERDPSLYDVVIIDVVDMLDNGPAQALYTRQFYELLHSRLRPGGVVAVQGLEFSHSDDKPHAALARTLRSVFSQVHSYRATVPSFLSSWGFLLASDWLDTNHWQAEDIDRRIERKLGPLWLDHLDGDYLKACFVMDRETRFLLAQPGPVLEDGVPFVAPPDIEEIEFGPAQLPALART
B6: LipB, octanoyltransferase (enzyme, UniProt Q9X6V9 1-217)
chain: MGLELGFRELGEVPYEPTWHAMQRFVAERDKSVMDEAWLLQHPAVFTQGQAGKAEHVLFPGDIPVIQVDRGGQVTYHGPGQLVTYLLLDVRRLGLGVRELVSRIEQSLIGLLASYDVQAVAKPDAPGVYVDGAKIASLGLRIRNGCSFHGLALNLDMDLRPFQRINPCGYAGMPMTQLRDLVGPVDFAEVCTRLRAELVSRLGYAEQKTLTGGIELT
B7: FabA, 3-hydroxydecanoyl-ACP dehydratase (enzyme, UniProt O33877 1-171)
chain: MTKQHAFTREDLLRCSRGELFGPGNAQLPAPNMLMIDRIVHISDVGGKYGKGELVAELDINPDLWFFACHFEGDPVMPGCLGLDAMWQLVGFYLGWQGNPGRGRALGSGEVKFFGQVLPTAKKVTYNIHIKRTINRSLVLAIADGTVSVDGREIYSAEGLRVGLFTSTDSF
B8: GlmU, bifunctional enzyme of LPS/peptidoglycan synthesis (enzyme, UniProt Q9HT22 1-454)
chain: MSLEIVILAAGQGTRMRSALPKVLHPIAGKPMLGHVIDCARQLQPERIHVVIGHGADLVRERMAADDLNFVLQAEQLGTGHAVAQALPFLSADQVLILYGDVPLIQLDTLQRLLAQVTPDQLSLLTVDMLDPTGYGRIVRDDQGAVQAIVEHKDATPAQRQIGEINTGILAVPGKRLADWLGRLSNDNAQGEYYLTDVIAMAVGDGLVVASAQPLDAMEVQGVNDRMQQAQLERHYQRLRAEELMRQGVTLLDPQRLDVRGEISVGRDVLIDVNVVLEGRVVIEDDVRIGPNCVIRDSVLRRGAVIKANSHLEGAELGEGSDAGPFARLRPGSVLGARAHVGNFVELKNARLGEGSKAGHLSYLGDAELGANCNIGAGTITCNYDGANKFRTELGDDVFIGSNNSLVAPLKIGDGATTAAGSTITHEVPAKNLAFGRARQKNLENWKRPEKIKK
B9: ArcB, ornithine carbamoyltransferase (enzyme, UniProt P08308 1-336)
chain: MAFNMHNRNLLSLMHHSTRELRYLLDLSRDLKRAKYTGTEQQHLKRKNIALIFEKTSTRTRCAFEVAAYDQGANVTYIDPNSSQIGHKESMKDTARVLGRMYDAIEYRGFKQEIVEELAKFAGVPVFNGLTDEYHPTQMLADVLTMREHSDKPLHDISYAYLGDARNNMGNSLLLIGAKLGMDVRIAAPKALWPHDEFVAQCKKFAEESGAKLTLTEDPKEAVKGVDFVHTDVWVSMGEPVEAWGERIKELLPYQVNMEIMKATGNPRAKFMHCLPAFHNSETKVGKQIAEQYPNLANGIEVTEDVFESPYNIAFEQAENRMHTIKAILVSTLADI
B10: KatA, catalase (endogenous) (enzyme, UniProt O52762 1-482)
chain: MEEKTRLTTAAGAPVVDNQNVQTAGPRGPMLLQDVWFLEKLAHFDREVIPERRMHAKGSAAYGTFTVTHDITPYTRAKIFSQVGKKTDMFLRFSTVAGERGAADAERDIRGFSMRFYTEQGNWDLVGNNTPVFYLRDPLKFPDLNHVVKRDPRTNLRNATFKWDFFSHLPESLHQLTIDFSDRGLPKSYRHIHGFGSHTFSFINANNERFWVKFHFKTQQGIENLTNAEAAEVIAQDRESSQRDLYESIEKGDFPRWKMYVQIMPEKEAATYRYNPFDLTKVWPHGDYPLIEVGFFELNRNPDNYFAEVEQAAFTPANVVPGIGFSPDKMLQGRLFSYGDAHRYRLGVNHHQIPVNAARCPHQVYHRDGGMRVDGNNAHQRVTYEPNSFNQWQEQPDFSEPPLSLEGAADHWNHRVDDDYYSQPAALFHLFTDEQKQRLFANIAEDIRDVPEQIQRRQIGLFLKVDPAYGKGVADALGLKLD
B11: PqsD, PQS biosynthetic protein (enzyme, UniProt P20582 1-337)
chain: MGNPILAGLGFSLPKRQVSNHDLVGRINTSDEFIVERTGVRTRYHVEPEQAVSALMVPAARQAIEAAGLLPEDIDLLLVNTLSPDHHDPSQACLIQPLLGLRHIPVLDIRAQCSGLLYGLQMARGQILAGLARHVLVVCGEVLSKRMDCSDRGRNLSILLGDGAGAVVVSAGESLEDGLLDLRLGADGNYFDLLMTAAPGSASPTFLDENVLREGGGEFLMRGRPMFEHASQTLVRIAGEMLAAHELTLDDIDHVICHQPNLRILDAVQEQLGIPQHKFAVTVDRLGNMASASTPVTLAMFWPDIQPGQRVLVLTYGSGATWGAALYRKPEEVNRPC
B12: FabH2, 3-oxo-acyl-ACP synthase (enzyme, UniProt Q9HYR2 1-330)
chain: MPRAAVVCGLGSYLPEAVLSNDMLAAELDTSDAWISSRTGVRQRHIAGDLGSGDLALRAASAALASAGLERVDAVVLATSTGDFCCPATAPRVAARLGLVGALAFDLSAACTGFVYGLASVGSLISAGLADSALLVGVDTFSHTLDPADRSTRALFGDGAGAVVLRAGDAEEEGALLAFDLGSDGHQFDLLMTPAVSRAERSSGQASNYFRMDGKAVFGQAVTQMSDSVRRVLDRVGWQASDLHHLVPHQANTRILAAVADQLDLPVERVVSNIAEVGNTVAASIPLALAHGLRQGILRDGGNMVLTGFGAGLTWGSVALRWPKIVPTMD
B13: Fur, ferric uptake regulation protein (protein, UniProt Q03456 1-134)
chain: MVENSELRKAGLKVTLPRVKILQMLDSAEQRHMSAEDVYKALMEAGEDVGLATVYRVLTQFEAAGLVVRHNFDGGHAVFELADSGHHDHMVCVDTGEVIEFMDAEIEKRQKEIVRERGFELVDHNLVLYVRKKK
B14: Pnp, polyribonucleotide nucleotidyltransferase (enzyme, UniProt Q9HV59 1-701)
chain: MNPVTKQFQFGQSTVTLETGRIARQATGAVLVTMDDVSVLVTVVGAKSPAEGRDFFPLSVHYQEKTYAAGRIPGGFFKREGRPSEKETLTSRLIDRPIRPLFPEGFMNEVQVVCTVVSTNKKSDPDIAAMIGTSAALAISGIPFAGPIGAARVGFHPEIGYILNPTYEQLQSSSLDMVVAGTEDAVLMVESEADELTEDQMLGAVLFAHDEFQAVIRAVKELAAEAGKPAWDWKAPAENTVLVNAIKAELGEAISQAYTITIKQDRYNRLGELRDQAVALFAGEEEGKFPASEVKDVFGLLEYRTVRENIVNGKPRIDGRDTRTVRPLRIEVGVLGKTHGSALFTRGETQALVVATLGTARDAQLLDTLEGERKDAFMLHYNFPPFSVGECGRMGSPGRREIGHGRLARRGVAAMLPTQDEFPYTIRVVSEITESNGSSSMASVCGASLALMDAGVPVKAPVAGIAMGLVKEGEKFAVLTDILGDEDHLGDMDFKVAGTDKGVTALQMDIKINGITEEIMEIALGQALEARLNILGQMNQVIAKPRAELSENAPTMLQMKIDSDKIRDVIGKGGATIRGICEETKASIDIEDDGSVKIYGETKEAAEAAKLRVLAITAEAEIGKIYVGKVERIVDFGAFVNILPGKDGLVHISQISDKRIDKVTDVLQEGQEVKVLVLDVDNRGRIKLSIKDVAAAEASGV

Results are given in words; binding and its absence hold for the method and conditions named. Binding seen in cells or lysates may run through a third protein. A yes stands for co-enrichment or nearness to the bait. Other partners may have been found. For part of these data: No binding means not detected with the bait. For part of these data: Tags and fused reporters may be left off the sequences shown.

The target of the first assay is AcpP with C-terminal SPA tag (strain CW20) (P. aeruginosa) (UniProt O54439). The assay is described as follows: affinity purification with mass spectrometry; tandem (sequential peptide) affinity purification of chromosomally SPA-tagged ACPs from stationary-phase PAO1 lysates: anti-FLAG M2 magnetic beads, 0.1% Triton X-100, TEV cleavage, calmodulin Sepharose, 4°C; untagged PAO1 as control; only proteins identified in both of two experiments reported.
For the molecule B1, the binding entry is “binds”. For B2, the binding entry is given as “binds”. As for B3, the binding entry is recorded as “binds”. Same read-out and setting: to B4 belongs “no binding”; to B5, “binds”. Still for that read-out and setting: to B6 belongs “binds”; to B7, “binds”. For the molecule B8, the binding result was “binds”.

Another assay deals with Acp3 with C-terminal SPA tag (strain CW21) (P. aeruginosa) (UniProt Q9HYR1). The description is as above.
Take B9: the binding entry is “binds”. Consider B10, for which the binding entry is listed as “binds”. B11: the binding result is on record as “binds”. Still for that read-out and setting: to B12 belongs “binds”; to B13, “binds”. Turning to B14, the binding entry is given as “binds”. Consider B8, for which the binding result is “binds”.
